Reference: the supplement of paper PMC4604168 (melanoma cell lines)
Some of the results follow. Many values rest on one well or one pass, so single values are uncertain.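 Imaging used 1,536-well plates; nuclei positive for cleaved PARP by antibody were divided by total DNA-stained nuclei to yield the apoptosis fraction. Doses for screening kept most cells viable, and cell lines differ markedly in resting and induced cleaved-PARP levels.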

What follows are compounds tested on C32 (assay: cleaved PARP positive nuclei fraction relative to DMSO control; melanoma cells; higher = more apoptosis). Conditions: library dose: low library concentration; 72 h.
In the case of `C=CCNC1=C2C[C@@H](C)C[C@H](OC)[C@H](O)[C@@H](C)/C=C(\C)[C@H](OC(N)=O)[C@@H](OC)/C=C\C=C(/C)C(=O)NC(=CC1=O)C2=O` [Tanespimycin] + C=CCn1c(=O)c2cnc(Nc3ccc(N4CCN(C)CC4)cc3)nc2n1-c1cccc(C(C)(C)O)n1 [MK1775] (first compound 0.002 µM, partner dose 0.02 µM), the “cleaved PARP positive nuclei fraction” value is reported as 223%. With `CC(C)(C)c1cnc(CSc2cnc(NC(=O)C3CCNCC3)s2)o1` + Cc1cc(N2CCOCC2)cc2[nH]c(-c3c(NC[C@@H](O)c4cccc(Cl)c4)cc[nH]c3=O)nc12 [BMS536924] (first compound 0.01 µM, partner dose 0.2 µM) the “cleaved PARP positive nuclei fraction” value was 255%. For `Cc1ccc(NC(=O)c2cccc(N(C)C)c2)cc1NC(=O)c1ccc(O)cc1` + NCC(=O)Nc1ccc(-n2nc(C(F)(F)F)cc2-c2ccc3c(ccc4ccccc43)c2)cc1 [OSU03012] (first compound 2 µM, partner dose 1 µM), the “cleaved PARP positive nuclei fraction” value was 69.6%. In the case of `OCc1c[nH]c2ccccc12` [Indole-3-carbinol] + O=C(CCCCCCC(=O)Nc1ccccc1)NO [vorinostat] (first compound 0.8 µM, partner dose 0.08 µM), the “cleaved PARP positive nuclei fraction” value is reported as 28.5%. For `C=CCn1c(=O)c2cnc(Nc3ccc(N4CCN(C)CC4)cc3)nc2n1-c1cccc(C(C)(C)O)n1` + NCC(=O)Nc1ccc(-n2nc(C(F)(F)F)cc2-c2ccc3c(ccc4ccccc43)c2)cc1 [OSU03012] (first compound 0.02 µM, partner dose 1 µM), the “cleaved PARP positive nuclei fraction” value was 111%. In the case of `COCC[n+]1c2c(n(Cc3cnccn3)c1C)C(=O)c1ccccc1C2=O` + CN(NC(=O)CC(=O)NN(C)C(=S)c1ccccc1)C(=S)c1ccccc1 [STA4783] (first compound 0.0004 µM, partner dose 0.006 µM), the “cleaved PARP positive nuclei fraction” value is reported as 309%. `Cn1nnc2c(C(N)=O)ncn2c1=O` [temozolomide] + CC1(C)NC(=O)N(c2ccc([N+](=O)[O-])c(C(F)(F)F)c2)C1=O [nilutamide] (first compound 2 µM, partner dose 1 µM) was tested, and the “cleaved PARP positive nuclei fraction” value was 170%. `COCC[n+]1c2c(n(Cc3cnccn3)c1C)C(=O)c1ccccc1C2=O` + O=C(CCCCCCC(=O)Nc1ccccc1)NO [vorinostat] (first compound 0.0004 µM, partner dose 0.08 µM) was tested, and the “cleaved PARP positive nuclei fraction” value was 36.3%.

These compounds were tested on CBRC008 (line from a melanoma biopsy) in the same assay as above. Conditions: library dose: low library concentration; 72 h.
With `Cc1nc(Nc2ncc(C(=O)Nc3c(C)cccc3Cl)s2)cc(N2CCN(CCO)CC2)n1` [dasatanib] + O=C(CCCCCCC(=O)Nc1ccccc1)NO [vorinostat] (first compound 0.004 µM, partner dose 0.08 µM) the “cleaved PARP positive nuclei fraction” value was 86.6%. With `Nc1cccc2c1CN(C1CCC(=O)NC1=O)C2=O` (configuration not stated) [lenalidomide] + CC(C)(C)c1cnc(CSc2cnc(NC(=O)C3CCNCC3)s2)o1 [SNS-032] (first compound 1 µM, partner dose 0.01 µM) the “cleaved PARP positive nuclei fraction” value was 211%. `OCc1c[nH]c2ccccc12` [Indole-3-carbinol] + Cc1ccc(NC(=O)c2cccc(N(C)C)c2)cc1NC(=O)c1ccc(O)cc1 [ZM336372] (first compound 0.8 µM, partner dose 2 µM) was tested, and the “cleaved PARP positive nuclei fraction” value was 191%. For `COc1cc(Nc2ncc(F)c(Nc3ccc4c(n3)NC(=O)C(C)(C)O4)n2)cc(OC)c1OC` [Tamatinib] + COc1cc2c(Oc3ccc4[nH]c(C)cc4c3F)ncnc2cc1OCCCN1CCCC1 [cediranib] (first compound 0.4 µM, partner dose 0.4 µM), the “cleaved PARP positive nuclei fraction” value was 391%. `C#Cc1cccc(Nc2ncnc3cc(OCCOC)c(OCCOC)cc23)c1` [erlotinib] + CC(C)(C)c1cnc(CSc2cnc(NC(=O)C3CCNCC3)s2)o1 [SNS-032] (first compound 0.8 µM, partner dose 0.01 µM) was tested, and the “cleaved PARP positive nuclei fraction” value was 80.6%. With `Clc1ccc(Nc2nnc(Cc3ccncc3)c3ccccc23)cc1` [vatalanib] + Cc1cc(N2CCOCC2)cc2[nH]c(-c3c(NC[C@@H](O)c4cccc(Cl)c4)cc[nH]c3=O)nc12 [BMS536924] (first compound 2 µM, partner dose 0.2 µM) the “cleaved PARP positive nuclei fraction” value was 189%. With `CC(=O)c1c(C)c2cnc(Nc3ccc(N4CCNCC4)cn3)nc2n(C2CCCC2)c1=O` [palbociclib] + Cn1cncc1[C@@](N)(c1ccc(Cl)cc1)c1ccc2c(c1)c(-c1cccc(Cl)c1)cc(=O)n2C [tipifarnib] (first compound 0.04 µM, partner dose 0.01 µM) the “cleaved PARP positive nuclei fraction” value was 48.4%. With `C[C@]1(c2nc3c(C(N)=O)cccc3[nH]2)CCCN1` [Veliparib] + Cc1ccc(NC(=O)c2cccc(N(C)C)c2)cc1NC(=O)c1ccc(O)cc1 [ZM336372] (first compound 1.4 µM, partner dose 2 µM) the “cleaved PARP positive nuclei fraction” value was 49.1%. In the case of `C=CCn1c(=O)c2cnc(Nc3ccc(N4CCN(C)CC4)cc3)nc2n1-c1cccc(C(C)(C)O)n1` + CN(C)S(=O)(=O)c1ccc2c(c1)/C(=C/c1cc3c([nH]1)CCCC3)C(=O)N2 [SU6656] (first compound 0.02 µM, partner dose 0.4 µM), the “cleaved PARP positive nuclei fraction” value is reported as 91.7%. For `Clc1ccc(Nc2nnc(Cc3ccncc3)c3ccccc23)cc1` [vatalanib] + O=C(CCCCCCC(=O)Nc1ccccc1)NO [vorinostat] (first compound 2 µM, partner dose 0.08 µM), the “cleaved PARP positive nuclei fraction” value was 93.3%. `OCc1c[nH]c2ccccc12` [Indole-3-carbinol] + COc1cc(Nc2ncc(F)c(Nc3ccc4c(n3)NC(=O)C(C)(C)O4)n2)cc(OC)c1OC [Tamatinib] (first compound 0.8 µM, partner dose 0.4 µM) was tested, and the “cleaved PARP positive nuclei fraction” value was 209%. With `COCC[n+]1c2c(n(Cc3cnccn3)c1C)C(=O)c1ccccc1C2=O` + C=CCn1c(=O)c2cnc(Nc3ccc(N4CCN(C)CC4)cc3)nc2n1-c1cccc(C(C)(C)O)n1 [MK1775] (first compound 0.0004 µM, partner dose 0.02 µM) the “cleaved PARP positive nuclei fraction” value was 1110%. For `C=CCNC1=C2C[C@@H](C)C[C@H](OC)[C@H](O)[C@@H](C)/C=C(\C)[C@H](OC(N)=O)[C@@H](OC)/C=C\C=C(/C)C(=O)NC(=CC1=O)C2=O` [Tanespimycin] + COc1cc(Nc2ncc(F)c(Nc3ccc4c(n3)NC(=O)C(C)(C)O4)n2)cc(OC)c1OC [Tamatinib] (first compound 0.002 µM, partner dose 0.4 µM), the “cleaved PARP positive nuclei fraction” value was 76.3%. For `OCc1c[nH]c2ccccc12` [Indole-3-carbinol] + C=CCn1c(=O)c2cnc(Nc3ccc(N4CCN(C)CC4)cc3)nc2n1-c1cccc(C(C)(C)O)n1 [MK1775] (first compound 0.8 µM, partner dose 0.02 µM), the “cleaved PARP positive nuclei fraction” value was 87.5%. `Cc1ccc(NC(=O)c2cccc(N(C)C)c2)cc1NC(=O)c1ccc(O)cc1` + CN(NC(=O)CC(=O)NN(C)C(=S)c1ccccc1)C(=S)c1ccccc1 [STA4783] (first compound 2 µM, partner dose 0.006 µM) was tested, and the “cleaved PARP positive nuclei fraction” value was 1610%. `Clc1ccc(Nc2nnc(Cc3ccncc3)c3ccccc23)cc1` [vatalanib] + COc1cc2c(Oc3ccc4[nH]c(C)cc4c3F)ncnc2cc1OCCCN1CCCC1 [cediranib] (first compound 2 µM, partner dose 0.4 µM) was tested, and the “cleaved PARP positive nuclei fraction” value was 211%. For `Cn1nnc2c(C(N)=O)ncn2c1=O` [temozolomide] + O=C(O)c1ccc(-c2c[nH]c3ncc(-c4ccccc4)cc23)cc1C1CCCC1 [GSK650394] (first compound 2 µM, partner dose 0.16 µM), the “cleaved PARP positive nuclei fraction” value was 103%. For `CC1(C)NC(=O)N(c2ccc([N+](=O)[O-])c(C(F)(F)F)c2)C1=O` [nilutamide] + CC(C)(C)c1cnc(CSc2cnc(NC(=O)C3CCNCC3)s2)o1 [SNS-032] (first compound 1 µM, partner dose 0.01 µM), the “cleaved PARP positive nuclei fraction” value was 135%. In the case of `CC(C)(C)c1cnc(CSc2cnc(NC(=O)C3CCNCC3)s2)o1` + CN(C)S(=O)(=O)c1ccc2c(c1)/C(=C/c1cc3c([nH]1)CCCC3)C(=O)N2 [SU6656] (first compound 0.01 µM, partner dose 0.4 µM), the “cleaved PARP positive nuclei fraction” value is reported as 106%. With `CC(=O)c1c(C)c2cnc(Nc3ccc(N4CCNCC4)cn3)nc2n(C2CCCC2)c1=O` [palbociclib] + CN(C)S(=O)(=O)c1ccc2c(c1)/C(=C/c1cc3c([nH]1)CCCC3)C(=O)N2 [SU6656] (first compound 0.04 µM, partner dose 0.4 µM) the “cleaved PARP positive nuclei fraction” value was 135%. With `CO[C@@H]1[C@H](N(C)C(=O)c2ccccc2)C[C@H]2O[C@]1(C)n1c3ccccc3c3c4c(c5c6ccccc6n2c5c31)C(=O)NC4` [Midostaurin] + C[C@@H]1CCN(C(=O)CC#N)C[C@@H]1N(C)c1ncnc2[nH]ccc12 [CP690550] (first compound 0.08 µM, partner dose 1 µM) the “cleaved PARP positive nuclei fraction” value was 121%. `O=C(CCCCCCC(=O)Nc1ccccc1)NO` [vorinostat] + CC1(C)NC(=O)N(c2ccc([N+](=O)[O-])c(C(F)(F)F)c2)C1=O [nilutamide] (first compound 0.08 µM, partner dose 1 µM) was tested, and the “cleaved PARP positive nuclei fraction” value was 31.9%. With `Cc1ccc(NC(=O)c2cccc(N(C)C)c2)cc1NC(=O)c1ccc(O)cc1` + COc1cc2c(Oc3ccc4[nH]c(C)cc4c3F)ncnc2cc1OCCCN1CCCC1 [cediranib] (first compound 2 µM, partner dose 0.4 µM) the “cleaved PARP positive nuclei fraction” value was 141%. `OCc1c[nH]c2ccccc12` [Indole-3-carbinol] + CN(NC(=O)CC(=O)NN(C)C(=S)c1ccccc1)C(=S)c1ccccc1 [STA4783] (first compound 0.8 µM, partner dose 0.006 µM) was tested, and the “cleaved PARP positive nuclei fraction” value was 3450%.
